Laboratory results published in article PMC9728965, “Stomatal CO2/bicarbonate sensor consists of two interacting protein kinases, Raf-like HT1 and non-kinase-activity requiring MPK12/MPK4” (Science Advances, 2022).
These are yes or no findings as the source states them, for the method shown. For part of these data: In cells and extracts the contact can be indirect. Some binding calls cover weakened binding; strength is not graded here. For part of these data: Tags and fused reporters may be left off the sequences shown. Blank lines part the entries; values can stand above or below the binder they belong to.

Experiments:
[1] = molecular target: T1, cVenus-MPK12 (Arabidopsis thaliana) (UniProt Q8GYQ5); assay: split reporter; split-Venus BiFC in N. benthamiana leaves, 35S promoter, inoculant-blinded; plants at nominally 100 ppm CO2 or shifted to 800 ppm CO2 for 4 hours; fluorescence intensity by ImageJ
T1 sequence: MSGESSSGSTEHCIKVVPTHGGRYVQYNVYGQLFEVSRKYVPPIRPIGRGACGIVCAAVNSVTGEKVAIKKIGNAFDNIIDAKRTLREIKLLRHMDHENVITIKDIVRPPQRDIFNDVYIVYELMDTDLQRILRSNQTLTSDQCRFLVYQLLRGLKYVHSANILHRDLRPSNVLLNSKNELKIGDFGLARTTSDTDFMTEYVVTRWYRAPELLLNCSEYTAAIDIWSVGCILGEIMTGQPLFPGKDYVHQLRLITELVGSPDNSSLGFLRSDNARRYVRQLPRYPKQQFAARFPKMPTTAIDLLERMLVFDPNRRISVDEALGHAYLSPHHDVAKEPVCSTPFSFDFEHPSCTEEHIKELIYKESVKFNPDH

GST-MPK11 (Arabidopsis) = molecular target: T2, GST-MPK11 (Arabidopsis) (UniProt Q9LMM5); assay: pull-down; GST-MPK on glutathione Sepharose 4B beads, His-HT1 as prey; 5 ug of each protein in 200 ul of 50 mM tris-HCl pH 7.5, 150 mM NaCl, 0.1% Triton X-100, 1 mM DTT; 20 mM NaHCO3 or 20 mM NaCl (control) in all buffers including washes; room temperature; immunoblot with anti-GST and anti-His; both purified
T2 sequence: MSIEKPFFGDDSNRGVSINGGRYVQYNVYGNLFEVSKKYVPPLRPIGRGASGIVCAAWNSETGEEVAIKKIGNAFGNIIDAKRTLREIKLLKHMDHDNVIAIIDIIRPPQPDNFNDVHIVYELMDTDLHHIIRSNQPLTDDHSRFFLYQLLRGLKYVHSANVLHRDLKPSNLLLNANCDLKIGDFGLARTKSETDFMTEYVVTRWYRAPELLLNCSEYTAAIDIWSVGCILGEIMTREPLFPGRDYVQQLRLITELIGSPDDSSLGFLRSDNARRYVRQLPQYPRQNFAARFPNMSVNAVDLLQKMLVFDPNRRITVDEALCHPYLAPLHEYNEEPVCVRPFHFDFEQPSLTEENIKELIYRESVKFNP

GST-MPK3 (Arabidopsis) = molecular target: T3, GST-MPK3 (Arabidopsis) (UniProt Q39023); assay: as above
T3 sequence: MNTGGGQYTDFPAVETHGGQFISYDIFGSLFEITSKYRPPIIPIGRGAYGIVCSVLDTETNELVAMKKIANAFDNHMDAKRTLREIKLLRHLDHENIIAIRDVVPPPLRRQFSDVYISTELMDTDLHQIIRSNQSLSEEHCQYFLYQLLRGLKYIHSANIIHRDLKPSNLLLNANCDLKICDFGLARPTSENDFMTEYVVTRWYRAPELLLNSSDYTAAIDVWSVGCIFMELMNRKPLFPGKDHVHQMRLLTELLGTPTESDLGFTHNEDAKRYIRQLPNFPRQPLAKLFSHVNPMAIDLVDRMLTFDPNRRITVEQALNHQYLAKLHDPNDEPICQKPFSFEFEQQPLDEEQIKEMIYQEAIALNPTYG

- binding [1]: binds
B1: nVenus-HT1 (enzyme, UniProt Q2MHE4 1-390)
chain: MSGLCFNPFRLRWSLRSKLPLEPSLPNLPCNPSSSKTNRYAEAETMEKKRFDSMESWSMILESENVETWEASKGEREEWTADLSQLFIGNKFASGAHSRIYRGIYKQRAVAVKMVRIPTHKEETRAKLEQQFKSEVALLSRLFHPNIVQFIAACKKPPVYCIITEYMSQGNLRMYLNKKEPYSLSIETVLRLALDISRGMEYLHSQGVIHRDLKSNNLLLNDEMRVKVADFGTSCLETQCREAKGNMGTYRWMAPEMIKEKPYTRKVDVYSFGIVLWELTTALLPFQGMTPVQAAFAVAEKNERPPLPASCQPALAHLIKRCWSENPSKRPDFSNIVAVLEKYDECVKEGLPLTSHASLTKTKKAILDHLKGCVTSISSPFSSSSVPVNA

B2: His-HT1 (high leaf temperature 1, Raf-like protein kinase), wild type (enzyme, UniProt Q2MHE4 1-390)
chain: B1 chain
- binding (GST-MPK11 (Arabidopsis)): no binding (tested: 5 ug of each protein in 200 ul)
- binding (GST-MPK3 (Arabidopsis)): no binding (tested: 5 ug of each protein in 200 ul)
